Experimental data taken from PubChem BioAssay AID485314 (National Center for Advancing Translational Sciences (NCATS), 2010).
About 4,500 (1.3%) of roughly 340,000 compounds were called active. Inconclusive means that the source gave no clear call. Such entries were picked first, then a sample of the others. Calls come from the whole dose curve; as a rule, active = well fitted inhibition curve with a large enough effect; inconclusive = small, poorly fitted or top-dose-only effect, or another doubt; inactive = no such curve, though single readings can be large or run the other way. A potency beside an inconclusive call is a rough fit, not a confirmed value.

Target: DNA polymerase beta (Homo sapiens) (UniProt P06746)
Assay: qHTS Assay for Inhibitors of DNA Polymerase Beta
Details: Pol beta primer extension/strand displacement, fluorescence kinetic; activity change, negative = inhibition: at 114 µM (top of the series)
In short: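 Pol beta (10 nM) was preincubated with compound for 15 min at room temperature. The reaction was then started with 50 nM substrate and read immediately and after a further 10 min at room temperature.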
% is set by controls: 0 for no effect and ±100 for the full control effect; potency is the fitted concentration of half-maximal effect.

Row | SMILES | Potency | activity change, negative = inhibition
1 | COc1cc(OC)c2c(O)c3c(c(-c4c5c(c(O)c6c(OC)cc(OC)cc46)CO[C@@H](C)[C@H]5O)c2c1)[C@H](O)[C@H](C)OC3 | active: 35.5 µM | 
2 | Cc1cccc(N2CCN(C(=O)C3COc4ccccc4O3)CC2)c1C (configuration not stated) | inconclusive: 12.6 µM [inhibitor, full curve] | 
3 | CCCCN(CCCC)C1=C(C(=O)c2ccccc2)N(C)S(=O)(=O)c2ccccc21 | inconclusive: 0.141 µM [inhibitor, full curve, poor fit] | 
4 | N#CCOC(=O)[C@H](Cc1c[nH]c2ccccc12)NS(=O)(=O)c1ccc(Cl)cc1 | inconclusive: 39.8 µM [inhibitor, partial curve] | 
5 | COc1ccc(NC(=O)CNC(=O)Cn2c(C)cc3ccccc3c2=O)cc1OC | active: 31.6 µM | 
6 | CCCCN1C(C(=O)c2ccccc2)=C(OC(C)=O)c2ccccc2S1(=O)=O | inactive | 
7 | O=C(NC1CC1)C1CC(=O)N(c2cccc(Cl)c2)C1 (configuration not stated) |  | inconclusive: -30.6% [inhibitor]
8 | Cc1cc(C)c2sc(NC(=O)C3=COCCO3)nc2c1 | inactive | 
9 | CCOc1ccc(CNCc2cccnc2)cc1 | inconclusive: 79.4 µM [inhibitor, single point] | 
10 | COc1ccc(CNS(=O)(=O)c2ccc(-c3cnc(C4CC4)o3)cc2)cc1 | inconclusive: 89.1 µM [inhibitor, single point] | 
11 | COc1ccc(OC)c(/C=N/Nc2nncn2/N=C/c2cc(OC)ccc2OC)c1 | inconclusive: 79.4 µM [inhibitor, single point] | 
12 | C=C(C)Cn1c(=O)c2c(nc3n2CCN3c2ccc(F)cc2)n(C)c1=O | inconclusive: 28.2 µM [inhibitor, full curve] | 
13 | CC(C)NC(=O)CC(=O)N/N=C/c1ccc(F)cc1 | inconclusive: 25.1 µM [inhibitor, partial curve] | 
14 | CC(C)C(=O)Nc1ncc(Cc2ccccc2Cl)s1 | inconclusive: 1.78 µM [inhibitor, full curve, poor fit] | 
15 | COc1ccc(S(=O)(=O)NC(C)C(=O)Nc2ccccc2F)cc1 (configuration not stated) | inconclusive: 44.7 µM [inhibitor, single point] | 
16 | Cc1ccccc1Nc1cc(C(=O)NCc2cccs2)c2ccccc2n1 | inactive | 
17 | CCOC(=O)c1ccc(S(=O)(=O)N2CCN(CC(O)COc3ccc(C#N)cc3)CC2)cc1 (configuration not stated) | inconclusive: 39.8 µM [inhibitor, single point] | 
18 | COc1ccc(-c2ccc(/C=C3\C(=O)N(c4ccccc4)N=C3c3ccccc3)o2)c([N+](=O)[O-])c1 | inconclusive: 0.112 µM [inhibitor, full curve, poor fit] | 
19 | Cc1cc(C(=O)N/N=C/c2ccc(-c3ccc([N+](=O)[O-])cc3Cl)o2)n[nH]1 |  | inconclusive: -78.3% [inhibitor]
20 | O=C(COc1ccc2ccccc2c1Br)Nc1ccncc1 | inconclusive: 50.1 µM [inhibitor, partial curve, poor fit] | 
21 | Cc1cccc(NC(=O)CCCc2ccccc2)c1 | inconclusive: 31.6 µM [inhibitor, full curve] | 
22 | COc1cc(/C=C2\SC(=S)N(NC(=O)c3ccccc3O)C2=O)ccc1O | inconclusive: 70.8 µM [inhibitor, single point] | 
23 | COc1ccc(-c2nc3ccc(NS(=O)(=O)c4ccc(Cl)cc4)cc3o2)cc1 | inconclusive: 89.1 µM [inhibitor, single point] | 

Row | SMILES | Potency | activity change, negative = inhibition
24 | CC1Cc2cc(/C(O)=C3/C(=O)C(=O)N(Cc4cccnc4)C3c3cccc(O)c3)ccc2O1 (configuration not stated) | inconclusive: 1 µM [inhibitor, single point] | 
25 | CCn1cc(C(=O)O)c(=O)c2cc(F)c(N3CCN(C(=S)Nc4ccc(OC)cc4)CC3)cc21 | inactive | 
26 | CC1CC(C)(C)NC(=S)N1CCCC(=O)N1CCN(c2ccc(F)cc2)CC1 (configuration not stated) | inconclusive: 89.1 µM [inhibitor, single point] | 
27 | Cc1nn(-c2ccc(F)cc2)c2nc(N)c(C#N)c(-c3ccc(O)c(O)c3)c12 | inconclusive: 22.4 µM [inhibitor, full curve] | 
28 | O=C(O)CC/C(=C\c1cc([N+](=O)[O-])ccc1Cl)c1nc2ccccc2s1 | inactive | 
29 | O=C(Nc1ccc(S(=O)(=O)Nc2nccs2)cc1)c1cc(-c2ccccc2Cl)nc2ccccc12 | inconclusive: 89.1 µM [inhibitor, single point] | 
30 | CCCc1cc(-c2ccc(O)c(OCC)c2)c(C#N)c(N)n1 | inconclusive: 39.8 µM [inhibitor, single point] | 
31 | Cc1cc(C)n2cnnc2n1 | inactive | 
32 | CCOc1cccc(C(=O)N(Cc2ccc(CC)cc2)C2CCS(=O)(=O)C2)c1 (configuration not stated) | inconclusive: 10 µM [inhibitor, partial curve] | 
33 | COc1cc(/C=C2\SC(N)=NC2=O)cc(OC)c1 | inconclusive: 89.1 µM [inhibitor, single point] | 
34 | Cn1c(CSc2nc3ccccc3n2C)nc2ccccc21 | inconclusive: 112 µM [inhibitor, partial curve, poor fit] | 
35 | O=C(N/N=C/c1cccc([N+](=O)[O-])c1)c1ccc(Br)cc1 | inactive | 
36 | Oc1ccc(/C=C/c2cc(O)cc(O)c2)cc1 | inconclusive: 44.7 µM [inhibitor, partial curve] | 
37 | O=C(O)c1cccc(N2C(=O)/C(=C/c3ccc(SCc4ccc(Cl)cc4)o3)SC2=S)c1 | active: 3.16 µM | 
38 | CCOC(=O)c1nc(C)nc(Sc2n[nH]c(-c3ccccc3)n2)c1C | inactive | 
39 | CCN(Cc1ccccc1)S(=O)(=O)c1ccc2c(c1)CC(C)N2C(=O)C1CCC1 (configuration not stated) | inconclusive: 100 µM [inhibitor, single point] | 
40 | Cc1cc(C(=O)N/N=C2\CC(=O)c3ccccc32)c(C)n1-c1ccc(F)cc1 | inactive | 
41 | Fc1cccc(Cl)c1CSc1ccc(-c2ccco2)nn1 | inconclusive: 8.91 µM [inhibitor, full curve] | 
42 | CCNc1nc(NCC)nc(SCCOC(=O)Nc2ccc(Cl)cc2Cl)n1 | inconclusive: 89.1 µM [inhibitor, single point] | 
43 | CCOC(=O)C1CCCN(C(=O)Cc2ccc(Cl)cc2)C1 (configuration not stated) | inconclusive: 100 µM [inhibitor, single point] | 
44 | CCOc1ccccc1NC(=O)Cc1noc2ccc(C)cc12 | inconclusive: 89.1 µM [inhibitor, single point] | 
45 | COc1cc(NC(=O)c2ccco2)c(OC)cc1NC(=O)c1cc(OC)c(OC)c(OC)c1 | active: 39.8 µM | 
46 | CC(/C=C/C1(O)C(C)CC(=O)CC1(C)C)OC1OC(CO)C(O)C(O)C1O (configuration not stated) | active: 28.2 µM | 

Row | SMILES | Potency | activity change, negative = inhibition
47 | C/C(=N\NC(=O)c1cccc(O)c1)c1cccc(NC(=O)c2ccc(F)cc2)c1 | inactive | 
48 | O=C(Nc1cccc(NC(=O)c2ncn[nH]2)c1)c1cccc(Cl)c1 | inconclusive: 79.4 µM [inhibitor, partial curve] | 
49 | COc1ccc2[nH]c(=O)c(CN(Cc3nnnn3Cc3ccco3)C3CCCCC3)cc2c1 | active: 28.2 µM | 
50 | Cc1cc(OCC(O)CN2CCCC2)cc(C)c1Cl (configuration not stated) | inconclusive: 0.224 µM [inhibitor, full curve] | 
51 | COc1cc(OC)c2cc(C(=O)N/N=C/c3cccc(OC)c3O)[nH]c2c1 | inconclusive: 20 µM [inhibitor, single point] | 
52 | CCOc1ccc(CNS(=O)(=O)c2ccc(-c3coc(C)n3)cc2)cc1 | inconclusive: 39.8 µM [inhibitor, single point] | 
53 | O=C(COc1ccc(S(=O)(=O)NC2CCCCC2)cc1Cl)NCc1cccnc1 | inconclusive: 100 µM [inhibitor, partial curve, poor fit] | 
54 | CC(C)COc1ccc(C(=O)NCc2ccco2)cc1 | inconclusive: 39.8 µM [inhibitor, full curve] | 
55 | O=C(CCCC(=O)N(CC(=O)NC1CCCCC1)c1ccc(F)cc1)Nc1ccccn1 | inconclusive: 89.1 µM [inhibitor, single point] | 
56 | CCN(C(=O)COC(=O)/C=C/c1ccc(O)c(OC)c1)C1CCS(=O)(=O)C1 (configuration not stated) | inconclusive: 39.8 µM [inhibitor, single point] | 
57 | CC(C)CCNC(=O)c1cnc2sc(N3CCCCC3)nn2c1=O | inactive | 
58 | CC(C)Nc1nc(-c2ccncc2)nc(-c2ccccc2)c1C#N | inconclusive: 0.1 µM [inhibitor, full curve, poor fit] | 
59 | O=C(NCc1ccccc1)Nc1cccn(Cc2ccccc2)c1=O | inconclusive: 79.4 µM [inhibitor, single point] | 
60 | O=C1OC(c2cccs2)=N/C1=C\c1ccc(-c2ccccc2Cl)o1 | inconclusive: 22.4 µM [inhibitor, single point] | 
61 | COc1ccccc1CNC(=O)[C@@H]1CCCN1S(=O)(=O)c1ccccc1F | inconclusive: 39.8 µM [inhibitor, single point] | 
62 | Cc1cc(C)nc(NS(=O)(=O)c2ccc(NC(=S)NC(=O)CC(C)C)cc2)n1 | inconclusive: 0.224 µM [inhibitor, full curve, poor fit] | 
63 | Cc1ccc(OCC(=O)OCc2cc(=O)n3nc(-c4cccs4)sc3n2)cc1C | inconclusive: 35.5 µM [inhibitor, full curve] | 
64 | O=C(CCS(=O)(=O)c1ccccc1)NCc1ccccc1 | inactive | 
65 | O=C1NC(=Nc2ccc(Cl)cc2)/C(=C/c2ccco2)S1 | active: 8.91 µM | 
66 | O=C(CCc1nc(-c2cccs2)no1)Nc1cccc([N+](=O)[O-])c1 | inconclusive: 89.1 µM [inhibitor, single point] | 
67 | O=C(CSc1nnc2sc3ccccc3n12)c1ccco1 | inconclusive: 20 µM [inhibitor, full curve, poor fit] | 

Among those listed so far, 3 contain a COOH group:
Row | SMILES | Potency | activity change, negative = inhibition
25 | CCn1cc(C(=O)O)c(=O)c2cc(F)c(N3CCN(C(=S)Nc4ccc(OC)cc4)CC3)cc21 | inactive | 
28 | O=C(O)CC/C(=C\c1cc([N+](=O)[O-])ccc1Cl)c1nc2ccccc2s1 | inactive | 
37 | O=C(O)c1cccc(N2C(=O)/C(=C/c3ccc(SCc4ccc(Cl)cc4)o3)SC2=S)c1 | active: 3.16 µM | 
